These are yes or no findings as the source states them, for the method shown. Some results given as binding are weak or reduced against the parent protein; the word gives no strength.
Target: biotin-labeled cMet (UniProt P08581)
Test: indirect ELISA: antibody captured on anti-IgG Fc coated plate, biotin-labeled cMet detected with streptavidin-HRP, OD450

By UniProt entry, the sequences of proteins in these tests, tags left out. Residues count along the entry.
UniProt P08581, residues 25-932: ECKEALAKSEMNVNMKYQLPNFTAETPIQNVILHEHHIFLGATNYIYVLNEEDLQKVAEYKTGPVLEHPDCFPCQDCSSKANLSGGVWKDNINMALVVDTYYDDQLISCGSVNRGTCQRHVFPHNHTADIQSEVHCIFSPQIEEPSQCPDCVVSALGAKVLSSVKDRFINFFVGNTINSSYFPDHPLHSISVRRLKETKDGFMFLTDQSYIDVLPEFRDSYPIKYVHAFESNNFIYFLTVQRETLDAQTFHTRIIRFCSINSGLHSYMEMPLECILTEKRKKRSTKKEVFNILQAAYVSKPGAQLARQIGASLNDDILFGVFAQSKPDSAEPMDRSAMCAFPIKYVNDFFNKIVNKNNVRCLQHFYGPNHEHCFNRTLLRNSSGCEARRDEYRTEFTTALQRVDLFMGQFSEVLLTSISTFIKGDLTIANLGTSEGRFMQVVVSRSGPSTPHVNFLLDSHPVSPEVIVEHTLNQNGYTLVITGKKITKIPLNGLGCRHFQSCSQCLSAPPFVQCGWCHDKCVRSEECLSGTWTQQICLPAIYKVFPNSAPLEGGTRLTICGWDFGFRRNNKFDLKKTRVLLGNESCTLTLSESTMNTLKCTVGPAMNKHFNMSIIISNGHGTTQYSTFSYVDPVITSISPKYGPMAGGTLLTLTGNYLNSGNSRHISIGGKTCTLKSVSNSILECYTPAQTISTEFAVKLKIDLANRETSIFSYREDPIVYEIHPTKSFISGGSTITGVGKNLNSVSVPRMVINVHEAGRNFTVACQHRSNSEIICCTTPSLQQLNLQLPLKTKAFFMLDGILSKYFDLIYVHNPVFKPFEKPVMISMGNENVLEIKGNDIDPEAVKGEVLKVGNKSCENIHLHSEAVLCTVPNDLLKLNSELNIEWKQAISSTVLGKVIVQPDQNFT

binding | Binder
binds | cMet AA4 Ig (antibody, human IgG1, kappa, V domains shown) VH: QVQLQQSGPELVRPGASVKMSCRASGYTFTSYWLHWVKQRPGQGLEWIGMIDPSNSDTRFNPNFKDKATLNVDRSSNTAYMLLSSLTSADSAVYYCATYGSYAAPLDYWGQGTSVTVSS VL: DFMMSQSPSSLTVSVGEKVTVSCKSSQSLLYTSSQKNYLAWYQQKPGQSPKLLIYWASTRESGVPDRFTGSGSGTDFTLTITSVKADDLAVYYCQQYYAYPWTFGGGTKLELKR
binds | cMet AA1 Ig (antibody, human IgG1, kappa, V domains shown) VH: QVQLQQSGPELVRPGASVKMSCRASGYTFTSYWLHWVKQRPGQGLEWIGMIDPSNSDTRFNPNFKDKATLNVDRSSNTAYMLLSSLTSADSAVYYCAAYGSYVSPLDYWGQGTSVTVSS VL: DFMMSQSPSSLTVSVGEKVTVSCKSSQSLLYTSSQKNYLAWYQQKPGQSPKLLIYWASTRESGVPDRFTGSGSGTDFTLTITSVKADDLAVYYCQQYYAYPWTFGGGTKLELKR
